These are literature values, as cited in patent US11129801B2 (SigmaThera SAS, priority 2016, dated 2021).

This data set has as its system sigma-1R. As to conditions: read-out: IC50 / affinity for sigma-1R; cited from earlier work.

For the molecule `O=C(CCCN1CCC(O)(c2ccc(Cl)cc2)CC1)c1ccc(F)cc1` [haloperidol], the IC50 is 24 ± 6 nM.
